Experimental data reported in PubChem BioAssay AID588590 (National Center for Advancing Translational Sciences (NCATS), 2011).
The whole screen tested about 390,000 compounds, of which about 4,000 (1%) were called active. The shares of active, inactive and inconclusive entries below differ from those in the screen. Calls follow the shape of the dose curve; as a rule, active = well fitted inhibition curve with a large enough effect; inconclusive = small, poorly fitted or top-dose-only effect, or another doubt; inactive = no such curve, though single readings can be large or run the other way. Potencies beside an inconclusive call are fits to weak or partial responses and may not hold up.

Amino acid sequences for entries named in this document (tags omitted). A change or cut given only in a name is not applied to a line headed by its entry.
UniProt Q9UNA4: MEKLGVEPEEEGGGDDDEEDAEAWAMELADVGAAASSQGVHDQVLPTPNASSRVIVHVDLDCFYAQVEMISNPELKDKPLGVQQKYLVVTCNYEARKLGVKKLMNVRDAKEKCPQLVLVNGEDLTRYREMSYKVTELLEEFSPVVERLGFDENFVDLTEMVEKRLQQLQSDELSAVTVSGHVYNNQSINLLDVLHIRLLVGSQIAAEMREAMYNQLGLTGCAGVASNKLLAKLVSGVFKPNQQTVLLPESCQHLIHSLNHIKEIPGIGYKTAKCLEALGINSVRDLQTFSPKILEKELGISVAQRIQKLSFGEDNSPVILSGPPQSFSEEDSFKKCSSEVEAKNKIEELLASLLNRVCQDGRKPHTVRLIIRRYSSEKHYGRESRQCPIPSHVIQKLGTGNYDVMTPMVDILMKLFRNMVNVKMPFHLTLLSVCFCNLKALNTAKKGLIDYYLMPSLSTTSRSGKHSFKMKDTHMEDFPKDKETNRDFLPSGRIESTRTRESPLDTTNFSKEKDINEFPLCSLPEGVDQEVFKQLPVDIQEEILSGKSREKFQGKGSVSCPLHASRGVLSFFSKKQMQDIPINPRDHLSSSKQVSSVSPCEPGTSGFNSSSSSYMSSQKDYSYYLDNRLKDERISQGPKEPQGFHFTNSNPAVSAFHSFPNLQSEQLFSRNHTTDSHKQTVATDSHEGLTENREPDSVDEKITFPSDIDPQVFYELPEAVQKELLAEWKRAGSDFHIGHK

target: DNA polymerase iota (Homo sapiens) (UniProt Q9UNA4); experiment: qHTS for Inhibitors of Polymerase Iota; conditions: Pol iota fluorescent replication assay, 10 min; series mostly up to 115 µM; activity, negative = inhibition: at the top concentration
How it was run: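 Fluorescent replication assay read twice, at 0 min and 10 min after adding 50 nM (final) substrate. Enzyme (10 nM) and compounds were first incubated 15 min at room temperature; enzyme-free buffer wells were negative controls.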
Potency is read from the fitted curve at half-maximal effect.

Row | SMILES | Potency | activity, negative = inhibition
1 | C[n+]1c(/C=C/c2ccc(O)cc2)ccc2ccccc21 | inconclusive: 31.6 µM [inhibitor, partial curve, poor fit] | –
2 | CN(C)c1ccc(CC2C(=O)Nc3ccccc32)cc1 (stereo not drawn) | active: 25.1 µM | –
3 | O=C(COc1ccccc1C(=O)Nc1ccccc1)Nc1ccccc1F | inconclusive: 89.1 µM [inhibitor, single point] | –
4 | COC(=O)C1=C(C)N(Cc2ccco2)C(=O)/C1=C\c1ccc([N+](=O)[O-])cc1 | inconclusive: 44.7 µM [inhibitor, partial curve] | –
5 | CCN(CC)S(=O)(=O)c1ccc(OC)c(NC(=O)COc2ccc3c(C)cc(=O)oc3c2)c1 | inconclusive: 50.1 µM [inhibitor, partial curve, poor fit] | –
6 | COc1ccc(N2CCC(CNC(=S)Nc3cc(C)cc(C)c3)C2)cc1 (stereo not drawn) | inconclusive: 79.4 µM [inhibitor, partial curve] | –
7 | COc1cc(C2CC(=O)N(c3ccccc3)C3=C2C(=O)OC3)cc(OC)c1OC (stereo not drawn) | inconclusive: 79.4 µM [inhibitor, partial curve, poor fit] | –
8 | CC(C)(C)c1nnc(NC(=O)C2CCN(C(=O)c3ccccc3)CC2)s1 | inconclusive: 79.4 µM [inhibitor, partial curve, poor fit] | –
9 | CCN1CCN(C(c2ccc(F)cc2)c2c(O)cc(C)n(CCOC)c2=O)CC1 (stereo not drawn) | – | inactive: 22.1%
10 | CC(=O)Nc1ccccc1NC(=O)C/C(C)=N/NC(=O)c1ccc([N+](=O)[O-])c(Cl)c1 | inconclusive: 79.4 µM [inhibitor, partial curve, poor fit] | –
11 | COc1ccc(CCNC(=O)c2ccc(CS(=O)(=O)Cc3cccc(C)c3)o2)cc1OC | inconclusive: 100 µM [inhibitor, single point] | –
12 | COc1cc(O)cc2occ(-c3ccc(O)cc3)c(=O)c12 | inconclusive: 50.1 µM [inhibitor, partial curve, poor fit] | –
13 | Cc1cc(NS(=O)(=O)c2ccc(NC(=O)c3cc(-c4cccnc4)nc4ccc(Cl)cc34)cc2)no1 | – | inactive: 7.91%
14 | C[C@H](CO)N1C[C@H](C)[C@@H](CN(C)C(=O)Nc2ccccc2)Oc2c(NC(=O)Cc3ccccc3)cccc2C1=O | inconclusive: 0.631 µM [inhibitor, full curve, poor fit] | –
15 | Cc1ccc(N2NC(=O)/C(=C/c3ccc(-c4ccc(Cl)c(C(=O)O)c4)o3)C2=O)cc1 | inconclusive: 14.1 µM [inhibitor, full curve] | –
16 | Clc1cccc(-c2nnc(-c3ccno3)o2)c1 | inconclusive: 35.5 µM [inhibitor, partial curve, poor fit] | –
17 | Cc1c(C(=O)Nc2ccc(C(C)C)cc2)sc2nc[nH]c(=O)c12 | – | inactive: -8.63%
18 | N#Cc1c2c(c(Nc3ccccc3)n3c1nc1ccccc13)CCC2 | inconclusive: 11.2 µM [inhibitor, partial curve, poor fit] | –
19 | COc1ccc2nc(NC(=O)Cn3cnc4c(=O)n(C)c(=O)n(C)c43)sc2c1 | inconclusive: 39.8 µM [inhibitor, single point] | –

One compound at a time (already shown). Order of values: Potency	activity, negative = inhibition
`CN(C)c1ccc(CC2C(=O)Nc3ccccc32)cc1` (stereo not drawn) as listed: active: 25.1 µM	–
`COc1cc(O)cc2occ(-c3ccc(O)cc3)c(=O)c12` as listed: inconclusive: 50.1 µM [inhibitor, partial curve, poor fit]	–

Additional structures follow:

Row | SMILES | Potency | activity, negative = inhibition
20 | COC(=O)CCC(=O)OC1(C)C(=O)C2=CN(CCCOC(C)C)C(c3ccc(OC)cc3)=CC2=C(Br)C1=O (stereo not drawn) | inconclusive: 31.6 µM [inhibitor, single point] | –
21 | CC[C@@]1(C(=O)OC)N[C@H](CN(C)C(=O)COC)[C@@H]2C(=O)N(Cc3ccccc3)C(=O)[C@@H]21 | inconclusive: 20 µM [inhibitor, single point] | –
22 | O=C1C(Cl)=C(N2CCCCCC2)C(=O)N1c1ccc(Br)cc1 | inconclusive: 28.2 µM [inhibitor, single point] | –
23 | O=C(Oc1ccc(C(=S)N2CCOCC2)cc1Br)c1ccccc1F | inconclusive: 56.2 µM [inhibitor, partial curve, poor fit] | –
24 | Nc1c(C(=O)Nc2ccccc2F)sc2nc(-c3ccco3)ccc12 | inconclusive: 22.4 µM [inhibitor, partial curve, poor fit] | –
25 | Cc1ccc(C(=O)CCC(=O)OCC(=O)N2c3ccccc3NC(=O)C2(C)C)cc1 | inconclusive: 39.8 µM [inhibitor, partial curve] | –
26 | COC(=O)CCC(=O)OC1(C)C(=O)C=C2C=C(C3CC3)N(Cc3ccc(OC)cc3)C=C2C1=O (stereo not drawn) | active: 17.8 µM | –
27 | O=C(O)c1ccc(CNC(=O)c2ccc3c(c2)C(=O)N(Cc2cccnc2)C3=O)cc1 | inconclusive: 11.2 µM [inhibitor, partial curve, poor fit] | –
28 | CCC(=O)Nc1ccc(NC(=S)NC(=O)/C=C/c2ccccc2)cc1 | inconclusive: 70.8 µM [inhibitor, partial curve, poor fit] | –
29 | O=C(Nc1ccccc1)N(Cc1ccc(F)cc1)c1ccccn1 | – | inactive: 16.1%
30 | CCOc1ccc2[nH]c(C)c(CN3CCOCC3)c(=O)c2c1 | inconclusive: 89.1 µM [inhibitor, single point] | –
31 | Cc1ccc(NC(=O)CN(C)Cc2ccc(Cl)cc2)cc1 | inconclusive: 3.55 µM [inhibitor, partial curve, poor fit] | –
32 | COc1ccccc1NC(=O)CN(C)S(=O)(=O)c1cc(C)ccc1OC | – | inactive: -6.14%
33 | Cc1ccc(S(=O)(=O)N/N=C\c2cn(-c3ccccc3)nc2-c2ccccc2)cc1 | inconclusive: 3.98 µM [inhibitor, full curve, poor fit] | –
34 | O=C(NCc1cccc(Br)c1)C1CC(c2ccccc2C(F)(F)F)=NO1 (stereo not drawn) | inconclusive: 35.5 µM [inhibitor, full curve] | –
35 | Cc1ccc(/C=C/C(=O)Nc2sc3c(c2C#N)CCCC3)o1 | inconclusive: 12.6 µM [inhibitor, full curve, poor fit] | –
36 | COCCCN1C(=O)c2ccc(C(=O)N3CCN(c4ccc(OC)cc4)CC3)cc2C1=O | inconclusive: 89.1 µM [inhibitor, single point] | –
37 | COc1ccc2oc(C(=O)OCC(=O)N3CCCCC3)c(C)c2c1 | inconclusive: 56.2 µM [inhibitor, partial curve, poor fit] | –
38 | CCN(CC)S(=O)(=O)c1ccc2c(c1)N(CC(=O)Nc1ccc(C)cc1C)C(=O)C1CCCN21 (stereo not drawn) | – | inactive: -10.5%
